Data published in PubChem BioAssay AID743266 (National Center for Advancing Translational Sciences (NCATS), 2014).
Screen size: about 410,000 compounds; about 310 (0.076%) were called active. This list was built around the results that the source calls inconclusive (neither active nor inactive); the mix of calls is not that of the screen. The call rests on the fitted dose curve; in most records, active means well fitted activation curve with a large enough effect; inconclusive means small, poorly fitted or top-dose-only effect, or another doubt; inactive means no such curve, though single readings can be large or run the other way. A potency beside an inconclusive call is a rough fit, not a confirmed value.

By UniProt entry, the sequences of proteins in these tests, tags left out. Where a name states a change or a piece, a line headed by the entry shows the natural chain unless it says otherwise.
UniProt Q03431: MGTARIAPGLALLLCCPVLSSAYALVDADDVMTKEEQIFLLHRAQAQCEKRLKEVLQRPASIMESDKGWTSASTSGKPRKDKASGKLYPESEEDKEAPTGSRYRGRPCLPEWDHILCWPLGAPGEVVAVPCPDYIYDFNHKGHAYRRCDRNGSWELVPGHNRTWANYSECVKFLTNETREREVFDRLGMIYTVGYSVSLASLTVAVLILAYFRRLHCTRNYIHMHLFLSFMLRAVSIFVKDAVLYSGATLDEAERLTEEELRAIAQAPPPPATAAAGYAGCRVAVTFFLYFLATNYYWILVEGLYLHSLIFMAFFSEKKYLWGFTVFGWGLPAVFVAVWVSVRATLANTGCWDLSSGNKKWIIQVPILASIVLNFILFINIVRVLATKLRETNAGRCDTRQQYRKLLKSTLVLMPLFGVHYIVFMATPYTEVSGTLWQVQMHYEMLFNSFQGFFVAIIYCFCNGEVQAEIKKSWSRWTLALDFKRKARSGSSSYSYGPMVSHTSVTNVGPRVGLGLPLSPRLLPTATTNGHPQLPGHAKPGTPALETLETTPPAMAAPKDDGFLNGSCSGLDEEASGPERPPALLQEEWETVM

What follows are compounds tested against Parathyroid hormone/parathyroid hormone-related peptide receptor (Homo sapiens) (UniProt Q03431) (assay: qHTS for PTHR1 Agonists: Primary Screen). Conditions: HEK293 GP2 PTHR1 cells, GloSensor cAMP luminescence, 1 h; activation: at 115 µM (top of the series) unless noted; series mostly up to 115 µM.
How it was run: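 HEK-293-derived GP2 cells expressing PTHR1 and a GloSensor cAMP reporter, 3,000/well, plated overnight, given luciferin plus IBMX (each 0.5 mM as added) for 1 h at 37 °C, then compound for 1 h at 37 °C. Luminescence was read after 15 min at room temperature.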
Further: nearly all actives have a fitted effect of over 55% in size.
Potency means the concentration at half of the fitted maximal effect.

Potency, inconclusive:
c1ccc(Nc2nc(N3CCNCC3)nc(N3CCOCC3)n2)cc1 39.8 µM [activator, single point]
COc1ccc(C(CNS(=O)(=O)c2ccc(C)cc2)N2CCN(C)CC2)cc1 (stereo not given) 1.41 µM [activator, full curve]
CC(C)CCN(C(=O)c1csnn1)C(C(=O)NC1CCCC1)c1ccccc1 (stereo not given) 141 µM [activator, single point]
CCC(C)c1ccccc1NC(=O)COc1ccc(-n2cnnn2)cc1 (stereo not given) 126 µM [activator, single point]
Cn1nc(C(=O)N2CCc3ccccc3C2)c2ccccc2c1=O 35.5 µM [activator, single point]
CC(C)(C)NC(=O)C(c1cccs1)N(C(=O)c1csnn1)c1ccccc1F (stereo not given) 70.8 µM [activator, partial curve, poor fit]
O=C(O)CCCC(=O)Nc1ccc(Cl)cc1 89.1 µM [activator, partial curve, poor fit]
O=C(NCc1ccccn1)C(=O)NCC1OCCN1S(=O)(=O)c1ccc(F)cc1 (stereo not given) 0.767 µM [activator, full curve, poor fit]
Cc1cc[n+](C2=C([O-])c3ccccc3C(=O)/C2=N\S(=O)(=O)c2cccs2)cc1C 79.4 µM [activator, partial curve, poor fit]

Random excerpt: 2 records from the list, in no set order.
Potency, inconclusive:
CC(C)(C)NC(=O)C(c1cccs1)N(C(=O)c1csnn1)c1ccccc1F (stereo not given) 70.8 µM [activator, partial curve, poor fit]
Cc1cc[n+](C2=C([O-])c3ccccc3C(=O)/C2=N\S(=O)(=O)c2cccs2)cc1C 79.4 µM [activator, partial curve, poor fit]

Following part:

outcome, inactive:
Nn1c(N2CCCCC2)nc2ccccc21
Cc1ccc(SCC(=O)NC(=O)NC2CCCC2)c(C)c1
O=C(CCl)Nc1ccccc1C(=O)NCc1ccccc1
N#Cc1ccccc1S(=O)(=O)N1CCN(C(=O)[C@H](Cc2ccccc2)NC(=O)c2ccco2)CC1

activation, inconclusive:
CSc1nc2ccccc2cc1/C=C(\C#N)c1ccc(Cl)c(Cl)c1 -40.3% [activator]
CNC(=O)c1ccc(NC(=O)CN2c3cccc4cccc(c34)S2(=O)=O)cc1 36.8% [activator]
Nc1nc(SCCO)[nH]c(=O)c1NC(=O)c1ccc(Br)o1 32.7% [activator]
CCOc1ccc(NC(=O)c2ncoc2-c2ccco2)cc1 -63.7% [activator]

activation, inactive:
Cc1c(Cl)cccc1NC(=O)c1ccc2c(c1)CCCN2S(C)(=O)=O -43.5%
COc1ccccc1Nc1ccc(Nc2ccccc2OC)nn1 -34.3%
CCOc1cc(/C=C2\C(=O)N(Cc3ccc(C)cc3)C(C)=C2C(=O)OC)ccc1O -10.1%
